Measurements reported in PubChem BioAssay AID1259266 (Sanger Institute, 2017)
Purpose: 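Essential genes and drug synergy among kinases and colorectal-mutated genes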 (primary screen). Cells: LS123 human colorectal cancer cells. Knock-down reagent: siRNA pool against human genes. Challenge: anchor drugs BYL719 (1 µM), cetuximab (5 µg/ml) or trametinib (10 nM), each chosen to barely slow growth alone; DMSO vehicle as the drug-free arm. Measurement: 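Replicate-averaged viability scaled to non-targeting pools, robust z-score for siRNA alone, and a synergy score per anchor drug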. Direction: robust z-score, knock-down alone: higher = more cells surviving after knock-down; viability, knock-down alone: higher = more viable cells; synergy score with trametinib and synergy score with BYL719 and synergy score with cetuximab: higher = stronger synthetic lethality with drug. Call rule: 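a knock-down counts as essential if its z-score without drug is under -3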. Meaning of the calls: active = essential (knock-down alone cuts viability); inactive = no change.
This is an unselected part of 794 reagents. 16 of all reagents (2%) were called active. 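Calls reflect knock-down alone, not drug synergy; viability seems capped at 1 and z-scores at 0.585.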 Entries without a mark were called inactive. Reagent sequences are not shown. Not stated in the record: the amount of reagent, the time to read-out.

target,"robust z-score, knock-down alone","viability, knock-down alone (fraction of control)",synergy score with trametinib,synergy score with BYL719,synergy score with cetuximab
IP6K3,-1.71,0.863,0.0465,-0.0256,0.00761
CDK5R1,-0.893,0.912,-0.0524,-0.0493,0.028
DGKI,0.585,1,-0.14,-0.159,-0.0122
BMPR1B,0.585,1,-0.0827,-0.158,0.000297
AK1,-1.12,0.898,0.0487,-0.0911,0.0289
INSR,0.585,1,-0.156,-0.103,-0.0122
LMTK1,-1.41,0.882,-0.0799,-0.126,-0.0856
COMMD3,0.585,1,0.00564,0.00413,-0.0122
STK32B,0.585,1,-0.159,-0.0904,-0.0122
MAST1,0.585,1,-0.147,-0.154,-0.0122
PRKAB2,0.0184,0.966,-0.0609,-0.0201,-0.0455
PI4KA,0.0571,0.969,0.00575,-0.096,-0.0432
NEK6,0.585,1,-0.109,-0.159,-0.0122
STK16,0.585,1,-0.186,-0.159,-0.0122
CTNNB1,-0.351,0.944,-0.0462,-0.109,-0.0106
FLT3,-1.15,0.897,0.00579,-0.0563,-0.114
FRK,-0.235,0.951,-0.0186,-0.0737,0.0546
AXIN2,0.585,1,-0.0766,-0.00684,-0.00951
PI4K2B,-2.23,0.833,0.024,-0.0436,0.0213
PBK,0.3,0.983,-0.113,-0.127,0.0367
CLK1,0.156,0.975,-0.0712,-0.0892,-0.0374
NUP98,-0.653,0.926,-0.169,-0.0742,-0.0842
PRKCI,-0.151,0.956,-0.0455,-0.0553,-0.0173
CSNK2A1,0.585,1,-0.0522,-0.159,-0.0122
DSTYK,0.585,1,-0.152,-0.159,-0.0122
NME4,0.585,1,-0.146,-0.108,-0.0122
PIK3R4,-0.07,0.961,-0.0737,-0.151,-0.0507
NEK4,-0.905,0.912,-0.112,-0.0373,0.0109
RPS6KA6,0.585,1,-0.0598,-0.0994,-0.0122
VRK2,-1.13,0.898,-0.118,-0.14,-0.0422
STK35,0.585,1,-0.0569,-0.0884,-0.00523
LATS1,0.585,1,-0.105,-0.0453,-0.0112
GALK1,-3.65 (active),0.749,-0.0232,-0.0337,-0.0885
STK38L,-0.723,0.922,-0.00405,-0.0562,-0.089
GRK3,0.585,1,-0.131,-0.159,-0.0122
PSKH1,0.585,1,-0.0873,-0.159,-0.0122
NME1,0.585,1,-0.183,-0.138,-0.0122
WHR1,0.585,1,-0.0668,-0.158,-0.0122
PTPRU,0.323,0.984,-0.0395,0.0245,0.0435
MAP3K15,0.585,1,-0.068,-0.0371,0.00252
AKAP9,-0.812,0.917,-0.135,-0.151,-0.0942
EFNA4,0.585,1,-0.179,-0.0996,-0.0122
RIOK3,-1.91,0.852,-0.173,-0.101,-0.0374
HK1,0.585,1,-0.062,-0.0454,-0.0122
FXN,0.585,1,-0.077,-0.0864,-0.0122
MAP3K12,0.585,1,-0.0697,-0.086,-0.0122
PRAG1,-0.00245,0.965,0.0738,0.00155,0.0626
BCKDK,0.585,1,-0.0592,-0.108,-0.0122
MARK1,0.585,1,-0.14,-0.0969,0.0189
ELF3,0.585,1,0.0825,-0.0097,0.0149
TBX3,0.585,1,-0.111,-0.0657,-0.0122
GRK6,0.585,1,-0.0978,-0.112,-0.0122
ERN1,0.585,1,-0.0721,-0.0665,-0.0122
DDR2,0.585,1,-0.0627,-0.101,-0.0122
TLK1,-0.451,0.938,0.0154,-0.0105,0.0337
ACVR1B,0.585,1,-0.0997,-0.103,-0.0122
ALK,0.486,0.994,-0.0154,0.0229,0.0307
CLK4,0.585,1,-0.0421,-0.0203,-0.0122
EFNA3,-2.01,0.846,-0.21,-0.171,-0.113
ACVR2B,-0.105,0.959,-0.131,-0.079,-0.0189
TCF7L2,0.585,1,-0.186,-0.159,-0.0122
PRKD2,0.367,0.987,-0.09,-0.0392,-0.025
PRKAR2A,-0.259,0.95,-0.106,-0.0866,-0.00338
